Reference: paper PMC3557289

Biological target: PPV-VPg fused to the C-terminal fragment of YFP (Plum pox virus)
Test: split reporter; BiFC with YFP fragments 1-174 (YN) and 175-239 (YC); transient co-expression in N. benthamiana epidermal cells by agroinfiltration; confocal imaging 36-48 hours after infiltration

B1: PdeIF(iso)4E fused to the N-terminal fragment of YFP (protein, UniProt M1J8U6 1-213)
chain: MATEVAAAVPPPQLDAEENSGLEAAAAEAKIQPSSGPHKLERKWTFWFDNQSKPKQGAAWGSSLRKAYTFETVQEFWCLYDQVFKPSKFPPNADFHLFRAGVEPKWEDPECANGGKWTVTSRSKASLDTMWLETLMALIGEQFDEADEICGVVASVRQRQDKLALWTRNAANEAAQMGIGRKWKEIIDVTDKITYSFHDDSKRERSAKPRYNV
B1 was tested, and the binding was “binds”.

These are yes or no findings as the source states them, for the method shown. In cells and extracts the contact can be indirect. Binding calls can cover weak binding; strength is not graded here. Where a sequence is shown, tags or fusion partners need not be part of it.
